Data: patent US20150150787A1, “COMPOSITIONS, METHODS & SYSTEMS FOR RESPIRATORY DELIVERY OF THREE OR MORE ACTIVE AGENTS” (Pearl Therapeutics, Inc., priority 2013, published 2015)

Experiment: Aerosol performance by Next Generation Impactor, BD/GP/FF cosuspension MDIs (Example 2)
Type: physicochemical
Conditions: NGI 30 LPM, versus mono/dual cosuspensions or other strengths
Method: For MDI manufacturing, a drug addition vessel (DAV) was prepared for suspension filling in the following manner. All powders were weighed into a drug addition vessel (DAV) within a nitrogen purged glove box that is controlled to <5% RH, by first adding half of the SP quantity, next filling the microcrystalline active agent material(s), and lastly adding the remaining half of the SP to the top. The DAV was sealed, removed from the glove box, and connected to the suspension vessel. The powders were rinsed into the vessel with HFA. The suspension was stirred and recirculated for no less than 60 minutes before MDI filling commenced. Product was formulated to a target fill weight of 10.8±0.5 g/canister. The temperature inside the suspension vessel was maintained at 15-17° C. throughout batch production. After recirculation for 30 min the cosuspension compositions were filled into 14 mL fluorinated ethylene polymer (FEP) coated aluminum canisters (Presspart, Blackburn, UK) through commercially available metering valves (Bespak, King's Lynn, UK). Sample canisters were then selected from each batch fill for total canister analysis to ensure that formulation targets were met.
The aerosol performance of each of the triple cosuspension compositions was evaluated and compared to the aerosol performance provided by the GFF, BFF, and BD Mono cosuspensions. […]

Coformulation effect (aerosol performance) when formulated in the triple cosuspensions: no coformulation effect was observed
Structure (SMILES): C[N+]1(C)CCC(OC(=O)C(O)(c2ccccc2)C2CCCC2)C1 (stereo not shown) [GP, (3-[(cyclopentylhydroxyphenylacetyl)oxy]-1,1-dimethyl-, bromide)]
